Source: paper PMC6895603
These are yes or no findings as the source states them, for the method shown. Binding seen in cells or lysates may run through a third protein. Some entries that bind do so weakly or less than the wild type.

Chains of the proteins cited; added tags and fusions are not shown. Lines headed by an entry give the natural chain unless they say otherwise; changes in a name come on top.
UniProt Q13936: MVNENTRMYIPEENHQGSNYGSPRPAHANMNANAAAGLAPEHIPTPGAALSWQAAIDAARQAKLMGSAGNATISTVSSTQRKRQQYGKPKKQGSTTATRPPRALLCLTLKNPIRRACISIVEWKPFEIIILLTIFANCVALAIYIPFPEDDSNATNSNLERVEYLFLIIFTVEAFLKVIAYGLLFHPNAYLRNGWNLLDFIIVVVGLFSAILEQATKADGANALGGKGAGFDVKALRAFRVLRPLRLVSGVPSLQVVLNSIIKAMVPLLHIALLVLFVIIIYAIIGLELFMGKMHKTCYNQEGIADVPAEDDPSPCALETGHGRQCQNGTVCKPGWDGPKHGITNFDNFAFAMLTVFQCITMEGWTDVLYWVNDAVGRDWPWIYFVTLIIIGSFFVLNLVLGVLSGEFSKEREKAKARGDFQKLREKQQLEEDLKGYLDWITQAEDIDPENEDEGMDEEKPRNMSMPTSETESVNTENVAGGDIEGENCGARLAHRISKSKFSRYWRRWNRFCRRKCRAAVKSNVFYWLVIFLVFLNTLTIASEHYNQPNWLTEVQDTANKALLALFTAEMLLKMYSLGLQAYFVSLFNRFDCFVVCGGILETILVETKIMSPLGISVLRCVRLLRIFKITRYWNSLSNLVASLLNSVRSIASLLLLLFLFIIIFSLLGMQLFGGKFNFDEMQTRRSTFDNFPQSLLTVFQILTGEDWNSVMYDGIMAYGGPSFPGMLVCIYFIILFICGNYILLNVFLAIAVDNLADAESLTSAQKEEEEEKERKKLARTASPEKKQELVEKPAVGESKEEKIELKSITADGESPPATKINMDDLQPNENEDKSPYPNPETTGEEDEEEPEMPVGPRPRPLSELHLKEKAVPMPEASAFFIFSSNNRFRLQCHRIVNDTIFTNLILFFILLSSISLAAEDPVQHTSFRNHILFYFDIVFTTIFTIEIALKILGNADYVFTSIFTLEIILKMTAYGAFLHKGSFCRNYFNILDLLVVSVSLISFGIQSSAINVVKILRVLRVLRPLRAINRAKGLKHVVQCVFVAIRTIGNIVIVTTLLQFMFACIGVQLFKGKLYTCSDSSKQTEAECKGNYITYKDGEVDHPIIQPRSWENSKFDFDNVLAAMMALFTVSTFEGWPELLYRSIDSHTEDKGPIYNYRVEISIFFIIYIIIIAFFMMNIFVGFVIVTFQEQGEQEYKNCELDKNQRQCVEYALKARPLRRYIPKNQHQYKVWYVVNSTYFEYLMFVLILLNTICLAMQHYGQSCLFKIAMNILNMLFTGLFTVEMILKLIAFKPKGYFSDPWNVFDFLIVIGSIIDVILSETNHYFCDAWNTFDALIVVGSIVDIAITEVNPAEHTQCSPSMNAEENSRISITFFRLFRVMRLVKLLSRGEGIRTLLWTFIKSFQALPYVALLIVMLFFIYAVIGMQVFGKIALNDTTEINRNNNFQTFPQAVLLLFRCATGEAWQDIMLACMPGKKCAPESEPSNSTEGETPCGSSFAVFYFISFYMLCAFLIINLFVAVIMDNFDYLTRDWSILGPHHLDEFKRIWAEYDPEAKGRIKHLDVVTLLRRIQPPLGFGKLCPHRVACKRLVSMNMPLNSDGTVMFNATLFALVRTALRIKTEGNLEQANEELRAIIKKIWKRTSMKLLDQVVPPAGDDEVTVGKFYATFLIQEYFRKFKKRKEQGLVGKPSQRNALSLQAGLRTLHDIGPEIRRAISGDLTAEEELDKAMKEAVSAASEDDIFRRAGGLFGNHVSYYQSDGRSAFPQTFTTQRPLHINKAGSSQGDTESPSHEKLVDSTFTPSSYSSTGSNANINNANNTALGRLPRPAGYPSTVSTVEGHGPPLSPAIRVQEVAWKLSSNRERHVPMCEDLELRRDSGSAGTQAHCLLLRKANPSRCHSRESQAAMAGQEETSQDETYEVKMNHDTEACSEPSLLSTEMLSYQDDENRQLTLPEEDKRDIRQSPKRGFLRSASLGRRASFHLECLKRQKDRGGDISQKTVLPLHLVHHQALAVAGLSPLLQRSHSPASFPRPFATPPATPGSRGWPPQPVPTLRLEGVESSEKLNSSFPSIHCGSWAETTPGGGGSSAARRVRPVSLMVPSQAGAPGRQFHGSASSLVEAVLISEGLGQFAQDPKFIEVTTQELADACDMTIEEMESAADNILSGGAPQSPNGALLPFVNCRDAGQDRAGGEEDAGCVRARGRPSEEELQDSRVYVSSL
UniProt P35609: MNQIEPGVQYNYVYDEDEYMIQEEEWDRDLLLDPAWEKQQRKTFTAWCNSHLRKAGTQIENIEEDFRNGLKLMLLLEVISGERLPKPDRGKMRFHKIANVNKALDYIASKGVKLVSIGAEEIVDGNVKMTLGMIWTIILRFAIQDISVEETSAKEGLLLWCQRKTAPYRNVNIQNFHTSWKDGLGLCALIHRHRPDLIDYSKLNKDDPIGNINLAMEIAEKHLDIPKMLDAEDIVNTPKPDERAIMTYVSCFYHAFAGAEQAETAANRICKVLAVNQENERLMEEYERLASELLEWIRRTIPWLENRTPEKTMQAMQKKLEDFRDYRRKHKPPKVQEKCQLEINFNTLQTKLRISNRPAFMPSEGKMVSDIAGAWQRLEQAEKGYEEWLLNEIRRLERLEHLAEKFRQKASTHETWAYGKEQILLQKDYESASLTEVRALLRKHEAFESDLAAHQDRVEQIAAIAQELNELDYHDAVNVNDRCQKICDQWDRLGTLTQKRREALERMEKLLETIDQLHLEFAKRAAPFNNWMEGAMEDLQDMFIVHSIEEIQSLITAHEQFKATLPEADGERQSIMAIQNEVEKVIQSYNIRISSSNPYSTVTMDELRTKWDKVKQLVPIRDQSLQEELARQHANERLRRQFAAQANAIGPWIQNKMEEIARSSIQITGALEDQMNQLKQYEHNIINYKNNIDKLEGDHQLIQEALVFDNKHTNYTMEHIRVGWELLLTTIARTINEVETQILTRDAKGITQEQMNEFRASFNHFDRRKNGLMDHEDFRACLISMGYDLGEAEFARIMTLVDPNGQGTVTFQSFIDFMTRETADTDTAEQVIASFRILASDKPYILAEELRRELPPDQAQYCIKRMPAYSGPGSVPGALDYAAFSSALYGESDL

Experiments:
[1] = biological target: Cavα1.2-NanoLuc (pore unit of the L-type Ca2+ channel) (UniProt Q13936); test: FRET or BRET; NanoBRET in live HL-1 cells; Cavα1.2-NanoLuc:ACTN2-Halo (WT or mutant) transfected 1:100; no Cavβ2 added; 100 nmol/l NanoBRET 618 ligand 48 h after transfection, read 5 h later
[2] = biological target: Cavα1.2-NanoLuc (pore unit of the L-type Ca2+ channel) (UniProt Q13936); test: FRET or BRET; NanoBRET in live HL-1 cells; Cavα1.2-NanoLuc:ACTN2-Halo (WT or mutant) transfected 1:100; with co-transfected Cavβ2; 100 nmol/l NanoBRET 618 ligand 48 h after transfection, read 5 h later

Substance | binding [1] | binding [2]
ACTN2-Halo WT (α-actinin 2, wild type) (from UniProt P35609 1-894) | binds | binds
ACTN2-Halo mutant (α-actinin 2 p.T247M) (from UniProt P35609 1-894) | binds | binds
